Results are given in words; binding and its absence hold for the method and conditions named. In cells and extracts the contact can be indirect. Some entries that bind do so weakly or less than the wild type.
Assays:
[1] = target: HA-tagged STAT3 (signal transducer and activator of transcription 3) (UniProt P42227); assay: co-IP; Hela cells co-transfected with pcDNA3.1-SOX-5 Flag and pcDNA3.1-STAT3 HA, 48 h, stimulated with PI and Biochanin A (10 uM); whole-cell lysate; IP with anti-HA antibody or control mouse IgG, IB with anti-HA or anti-Flag; lysis buffer 0.5% Triton X-100, 20 mM Hepes pH 7.4, 150 mM NaCl
[2] = target: STAT3 (signal transducer and activator of transcription 3), endogenous in Th17 cells (mouse (endogenous in Th17 cells)) (UniProt P42227); assay: co-IP; whole-cell lysates of Th17 cells differentiated from naive CD4+ T cells; endogenous proteins; IP with anti-STAT3 antibody or control mouse IgG, IB with anti-SOX-5 or anti-STAT3; lysis buffer 0.5% Triton X-100, 20 mM Hepes pH 7.4, 150 mM NaCl

The chains behind the UniProt entries cited, without tags or fusion partners.
UniProt P42227: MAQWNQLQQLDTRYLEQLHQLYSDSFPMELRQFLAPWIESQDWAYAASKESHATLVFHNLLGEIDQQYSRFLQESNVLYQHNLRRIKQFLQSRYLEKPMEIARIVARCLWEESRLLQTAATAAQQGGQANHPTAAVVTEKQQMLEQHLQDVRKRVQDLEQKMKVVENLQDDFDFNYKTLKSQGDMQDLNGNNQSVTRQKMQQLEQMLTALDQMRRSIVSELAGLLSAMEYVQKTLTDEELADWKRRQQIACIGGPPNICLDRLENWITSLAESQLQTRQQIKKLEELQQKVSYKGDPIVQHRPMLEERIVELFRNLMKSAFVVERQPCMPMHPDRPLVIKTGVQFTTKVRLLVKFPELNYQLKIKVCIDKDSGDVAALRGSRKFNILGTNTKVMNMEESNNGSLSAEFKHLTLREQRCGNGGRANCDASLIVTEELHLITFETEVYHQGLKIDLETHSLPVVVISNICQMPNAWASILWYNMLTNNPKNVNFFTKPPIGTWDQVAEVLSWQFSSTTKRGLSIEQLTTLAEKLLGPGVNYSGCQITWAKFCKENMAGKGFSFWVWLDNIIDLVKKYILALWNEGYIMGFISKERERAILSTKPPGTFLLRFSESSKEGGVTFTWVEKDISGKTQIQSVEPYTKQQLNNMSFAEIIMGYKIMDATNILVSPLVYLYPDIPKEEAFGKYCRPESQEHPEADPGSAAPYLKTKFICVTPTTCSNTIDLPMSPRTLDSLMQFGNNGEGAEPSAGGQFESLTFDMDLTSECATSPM
UniProt P35710: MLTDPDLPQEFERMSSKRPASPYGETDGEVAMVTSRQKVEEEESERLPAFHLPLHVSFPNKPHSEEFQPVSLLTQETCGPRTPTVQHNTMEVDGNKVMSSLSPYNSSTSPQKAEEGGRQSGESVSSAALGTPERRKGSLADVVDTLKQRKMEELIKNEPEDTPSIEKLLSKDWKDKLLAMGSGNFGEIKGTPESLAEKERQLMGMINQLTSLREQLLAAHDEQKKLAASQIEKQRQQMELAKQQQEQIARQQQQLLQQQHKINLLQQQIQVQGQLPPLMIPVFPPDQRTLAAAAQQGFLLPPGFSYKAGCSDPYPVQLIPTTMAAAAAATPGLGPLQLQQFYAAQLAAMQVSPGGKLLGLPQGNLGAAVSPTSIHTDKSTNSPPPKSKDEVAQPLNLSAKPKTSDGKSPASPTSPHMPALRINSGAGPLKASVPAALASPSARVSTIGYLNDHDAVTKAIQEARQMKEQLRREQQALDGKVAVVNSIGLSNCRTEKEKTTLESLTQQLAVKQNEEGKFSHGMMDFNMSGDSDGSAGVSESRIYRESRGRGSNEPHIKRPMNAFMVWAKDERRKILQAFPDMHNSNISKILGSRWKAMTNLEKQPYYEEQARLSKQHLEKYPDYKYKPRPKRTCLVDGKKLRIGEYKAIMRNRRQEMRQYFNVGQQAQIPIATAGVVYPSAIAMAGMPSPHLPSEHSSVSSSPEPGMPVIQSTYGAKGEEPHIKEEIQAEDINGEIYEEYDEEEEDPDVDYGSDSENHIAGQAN

binding [1] | binding [2] | Substance
binds | – | Flag-tagged SOX-5 (SRY-box transcription factor 5) (from UniProt P35710 1-763)
– | binds | SOX-5 (SRY-box transcription factor 5), endogenous in Th17 cells (from UniProt P35710 1-763)

Source: article PMC7817841
